Measurements: doi:10.1101/296194
These are yes or no findings as the source states them, for the method shown. In cells and extracts the contact can be indirect. A yes stands for co-enrichment or nearness to the bait. Other partners may have been found. No binding means not detected with the bait. Tags and fused reporters may be left off the sequences shown.

Sequences of proteins named here, by UniProt entry; tags and fusion partners are left off.
UniProt P00519: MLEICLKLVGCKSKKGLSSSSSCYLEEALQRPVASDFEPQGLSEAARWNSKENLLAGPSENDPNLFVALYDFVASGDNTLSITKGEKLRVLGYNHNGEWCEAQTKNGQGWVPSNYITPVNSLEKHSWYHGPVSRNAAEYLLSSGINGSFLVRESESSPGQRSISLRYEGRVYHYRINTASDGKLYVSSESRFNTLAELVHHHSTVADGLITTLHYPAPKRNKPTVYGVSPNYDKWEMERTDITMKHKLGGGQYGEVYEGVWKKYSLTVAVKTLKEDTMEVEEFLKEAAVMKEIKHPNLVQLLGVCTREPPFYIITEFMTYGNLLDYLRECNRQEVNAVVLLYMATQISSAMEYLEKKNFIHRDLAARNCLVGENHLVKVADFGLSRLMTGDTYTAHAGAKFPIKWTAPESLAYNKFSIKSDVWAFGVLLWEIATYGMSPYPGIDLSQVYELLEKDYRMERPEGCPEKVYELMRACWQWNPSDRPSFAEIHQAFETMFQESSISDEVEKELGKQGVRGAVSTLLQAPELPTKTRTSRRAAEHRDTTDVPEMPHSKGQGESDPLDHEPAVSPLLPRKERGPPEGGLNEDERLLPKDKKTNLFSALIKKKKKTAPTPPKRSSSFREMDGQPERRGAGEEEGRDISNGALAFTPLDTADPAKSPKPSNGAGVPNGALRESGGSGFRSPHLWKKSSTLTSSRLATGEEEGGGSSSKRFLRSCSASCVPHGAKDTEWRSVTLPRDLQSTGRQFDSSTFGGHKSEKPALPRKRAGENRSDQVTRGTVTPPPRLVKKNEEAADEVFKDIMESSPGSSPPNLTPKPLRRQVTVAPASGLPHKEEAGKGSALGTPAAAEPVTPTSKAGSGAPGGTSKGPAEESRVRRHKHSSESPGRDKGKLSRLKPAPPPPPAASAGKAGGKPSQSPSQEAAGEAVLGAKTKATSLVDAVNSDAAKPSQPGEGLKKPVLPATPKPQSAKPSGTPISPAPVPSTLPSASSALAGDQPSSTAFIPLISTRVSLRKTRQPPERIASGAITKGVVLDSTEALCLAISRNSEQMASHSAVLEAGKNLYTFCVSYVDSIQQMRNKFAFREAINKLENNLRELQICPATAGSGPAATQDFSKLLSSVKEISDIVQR

Legend:
Assay in all cases: affinity purification with mass spectrometry
[1] = target: T1, Flag-PTPN7 WT (UniProt P35236)
T1 sequence: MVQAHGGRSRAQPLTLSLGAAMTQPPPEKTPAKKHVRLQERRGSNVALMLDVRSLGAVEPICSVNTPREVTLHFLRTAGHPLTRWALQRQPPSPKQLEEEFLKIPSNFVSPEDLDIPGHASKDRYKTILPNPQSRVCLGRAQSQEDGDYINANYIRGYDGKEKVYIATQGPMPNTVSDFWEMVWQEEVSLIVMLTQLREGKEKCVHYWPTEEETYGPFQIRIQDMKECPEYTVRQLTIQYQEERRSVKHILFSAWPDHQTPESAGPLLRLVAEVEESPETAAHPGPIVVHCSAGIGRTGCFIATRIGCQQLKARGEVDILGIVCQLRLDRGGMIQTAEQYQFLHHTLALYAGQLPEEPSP

[2] = target: T2, Flag-PTPN9 WT (UniProt P43378)
T2 sequence: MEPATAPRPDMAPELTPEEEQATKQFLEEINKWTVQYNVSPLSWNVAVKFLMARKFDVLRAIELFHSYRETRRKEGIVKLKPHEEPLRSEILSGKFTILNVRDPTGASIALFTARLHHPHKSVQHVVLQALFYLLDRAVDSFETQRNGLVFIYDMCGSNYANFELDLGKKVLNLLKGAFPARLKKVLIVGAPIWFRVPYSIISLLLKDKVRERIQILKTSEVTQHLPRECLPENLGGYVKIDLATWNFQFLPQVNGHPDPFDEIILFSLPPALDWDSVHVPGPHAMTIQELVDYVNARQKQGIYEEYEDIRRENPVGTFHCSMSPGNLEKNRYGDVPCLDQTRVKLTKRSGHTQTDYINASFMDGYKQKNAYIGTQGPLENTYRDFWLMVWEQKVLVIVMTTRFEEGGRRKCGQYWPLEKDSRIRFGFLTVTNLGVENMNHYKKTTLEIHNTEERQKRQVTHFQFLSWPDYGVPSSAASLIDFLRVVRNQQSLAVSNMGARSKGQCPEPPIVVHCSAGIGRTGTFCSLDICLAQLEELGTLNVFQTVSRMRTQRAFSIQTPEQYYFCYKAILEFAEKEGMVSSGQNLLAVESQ

[3] = target: T3, Flag-PTPN18-WT (UniProt Q99952)
T3 sequence: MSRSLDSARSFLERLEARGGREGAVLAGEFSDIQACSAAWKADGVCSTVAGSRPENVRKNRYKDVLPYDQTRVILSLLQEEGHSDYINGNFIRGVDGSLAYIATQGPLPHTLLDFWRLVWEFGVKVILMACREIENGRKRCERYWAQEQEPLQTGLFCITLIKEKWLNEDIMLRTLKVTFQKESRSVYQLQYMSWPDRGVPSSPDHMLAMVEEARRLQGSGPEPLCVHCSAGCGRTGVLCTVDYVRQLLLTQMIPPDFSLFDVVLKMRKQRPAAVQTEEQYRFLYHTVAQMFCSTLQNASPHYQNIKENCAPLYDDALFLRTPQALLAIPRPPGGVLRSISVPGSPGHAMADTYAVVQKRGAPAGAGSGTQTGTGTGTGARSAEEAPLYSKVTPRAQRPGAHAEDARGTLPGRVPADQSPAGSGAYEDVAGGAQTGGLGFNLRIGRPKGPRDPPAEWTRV

binding [1]: no binding
binding [2]: no binding
binding [3]: no binding
Substance: ABL1 (from UniProt P00519 1-1130)
